Results as given in publication doi:10.1101/2023.05.07.539750.
These are yes or no findings as the source states them, for the method shown. Binding seen in cells or lysates may run through a third protein. Some results given as binding are weak or reduced against the parent protein; the word gives no strength.

Amino acid sequences for entries named in this document (tags omitted).
UniProt P20700: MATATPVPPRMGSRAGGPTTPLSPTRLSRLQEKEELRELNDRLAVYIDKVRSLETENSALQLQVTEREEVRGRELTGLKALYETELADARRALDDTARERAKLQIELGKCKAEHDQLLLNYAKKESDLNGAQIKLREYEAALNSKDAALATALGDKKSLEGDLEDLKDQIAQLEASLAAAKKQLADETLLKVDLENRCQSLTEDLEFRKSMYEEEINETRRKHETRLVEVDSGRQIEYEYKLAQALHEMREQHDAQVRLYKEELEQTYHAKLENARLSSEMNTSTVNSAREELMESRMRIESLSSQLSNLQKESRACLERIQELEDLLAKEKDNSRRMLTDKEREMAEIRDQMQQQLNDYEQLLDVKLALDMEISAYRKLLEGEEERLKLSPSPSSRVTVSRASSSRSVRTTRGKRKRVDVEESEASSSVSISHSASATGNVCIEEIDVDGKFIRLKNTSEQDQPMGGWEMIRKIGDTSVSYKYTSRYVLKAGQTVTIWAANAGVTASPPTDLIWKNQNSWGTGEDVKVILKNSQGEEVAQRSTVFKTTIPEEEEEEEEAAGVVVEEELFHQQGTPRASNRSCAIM
UniProt Q12888: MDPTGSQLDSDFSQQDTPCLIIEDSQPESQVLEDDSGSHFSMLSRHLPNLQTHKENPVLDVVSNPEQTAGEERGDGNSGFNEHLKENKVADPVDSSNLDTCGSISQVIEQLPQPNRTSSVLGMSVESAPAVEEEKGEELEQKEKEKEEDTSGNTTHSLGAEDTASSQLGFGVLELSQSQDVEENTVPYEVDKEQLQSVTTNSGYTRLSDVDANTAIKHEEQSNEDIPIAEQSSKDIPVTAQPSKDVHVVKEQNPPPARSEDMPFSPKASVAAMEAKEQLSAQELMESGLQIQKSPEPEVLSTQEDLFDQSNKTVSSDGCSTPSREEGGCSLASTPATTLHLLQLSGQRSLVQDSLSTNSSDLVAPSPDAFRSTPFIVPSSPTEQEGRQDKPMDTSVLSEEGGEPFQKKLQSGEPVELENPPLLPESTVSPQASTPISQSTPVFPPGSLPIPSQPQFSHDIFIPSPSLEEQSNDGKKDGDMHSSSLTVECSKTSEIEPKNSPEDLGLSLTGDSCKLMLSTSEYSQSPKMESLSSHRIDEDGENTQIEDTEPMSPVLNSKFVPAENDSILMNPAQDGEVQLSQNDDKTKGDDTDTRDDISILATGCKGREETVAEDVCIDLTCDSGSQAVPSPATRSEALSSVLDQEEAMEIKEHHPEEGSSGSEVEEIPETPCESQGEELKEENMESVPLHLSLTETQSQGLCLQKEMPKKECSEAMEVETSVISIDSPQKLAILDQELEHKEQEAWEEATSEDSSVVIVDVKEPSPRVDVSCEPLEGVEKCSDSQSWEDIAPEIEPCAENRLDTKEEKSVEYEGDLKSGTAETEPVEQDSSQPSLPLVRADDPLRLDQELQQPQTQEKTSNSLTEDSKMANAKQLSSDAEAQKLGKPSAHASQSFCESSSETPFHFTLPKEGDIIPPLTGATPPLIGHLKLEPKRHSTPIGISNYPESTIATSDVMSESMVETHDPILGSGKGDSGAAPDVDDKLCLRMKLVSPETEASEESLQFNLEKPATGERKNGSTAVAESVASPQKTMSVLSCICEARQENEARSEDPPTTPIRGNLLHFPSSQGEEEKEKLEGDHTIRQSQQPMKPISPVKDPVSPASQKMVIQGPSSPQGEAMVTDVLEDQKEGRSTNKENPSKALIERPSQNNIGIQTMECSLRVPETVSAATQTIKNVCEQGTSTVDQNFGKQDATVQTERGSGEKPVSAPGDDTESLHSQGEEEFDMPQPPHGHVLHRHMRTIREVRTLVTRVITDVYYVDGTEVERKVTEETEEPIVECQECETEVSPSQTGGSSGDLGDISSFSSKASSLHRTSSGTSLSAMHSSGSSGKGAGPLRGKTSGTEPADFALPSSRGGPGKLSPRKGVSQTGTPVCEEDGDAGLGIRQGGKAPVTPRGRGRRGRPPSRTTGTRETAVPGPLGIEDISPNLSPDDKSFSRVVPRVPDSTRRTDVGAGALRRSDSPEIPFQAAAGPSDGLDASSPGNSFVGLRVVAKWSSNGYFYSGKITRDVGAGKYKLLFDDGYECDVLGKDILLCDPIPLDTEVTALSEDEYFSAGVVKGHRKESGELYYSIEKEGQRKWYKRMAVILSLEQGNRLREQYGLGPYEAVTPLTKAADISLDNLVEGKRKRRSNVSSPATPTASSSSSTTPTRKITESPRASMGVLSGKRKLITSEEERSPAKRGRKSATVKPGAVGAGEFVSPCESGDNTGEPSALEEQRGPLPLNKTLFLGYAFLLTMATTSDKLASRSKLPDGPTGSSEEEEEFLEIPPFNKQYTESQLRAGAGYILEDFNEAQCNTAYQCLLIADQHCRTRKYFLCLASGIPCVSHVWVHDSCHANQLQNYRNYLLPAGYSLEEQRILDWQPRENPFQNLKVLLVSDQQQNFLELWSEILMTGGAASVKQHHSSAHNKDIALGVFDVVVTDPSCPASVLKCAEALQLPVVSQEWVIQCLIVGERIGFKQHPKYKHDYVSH

Target: Lamin-B1 (LMNB1) (human (endogenous in cultured human cells; line not named for the co-IP)) (UniProt P20700)
Assay: co-IP

In the case of “TP53-binding protein 1 (53BP1) (from UniProt Q12888 1-1972)”, the binding was “binds”.
